Experiment in all cases: SEC; analytical gel filtration, Superdex S75 10/300 GL, 20 mM HEPES pH 7.5, 150 mM NaCl; protein diluted to 50 μM, 100 μL loaded; standard curve from a low-molecular weight calibration kit; both purified
In test [1] the target is NRC1 NB-ARC domain, wild-type, expressed in E. coli (tomato) (UniProt A1X877).
Test [2] addresses NRC1 NB-ARC domain, wild-type, expressed in Sf9 cells (tomato) (UniProt A1X877).
The target of test [3] is NRC1 NB-ARC^D268N (tomato) (UniProt A1X877).

Residue numbers refer to the chain shown, from its start. Names and notes keep the numbering of the source. Results are given in words; binding and its absence hold for the method and conditions named.

B1: NRC1 NB-ARC domain, wild-type, expressed in E. coli (domain or fragment, UniProt A1X877 150-494)
chain: PVVEEDDVVGFDDEAQTVIDRLLEGSGDLEVIPVVGMPGLGKTTLATKIFKHPKIEYEFFTRLWLYVSQSYKTRELYLNIISKFTGNTKHCRDMSEKDLALKVQEILEEGGKYLIVLDDVWSTDAWDRIKIAFPKNDKGNRVLLTTRDHRVARYCNRSPHDLKFLTDEESWILLEKRAFHKAKCLPELETNGKSIARKCKGLPLAIVVIAGALIGKSKTIKEWEQVDQSVGEHFINRDQPNSCDKLVRMSYDVLPYDWKACFLYFGTFPRGYLIPARKLIRLWIAEGFIQYRGDLSPECKAEEYLNELVNRNLVMVMQRTVDGQIKTCRVHDMLYEFCWQEATTE
For the molecule B1, the binding result in test [1] is “no binding (tested: 50 μM)”.

B2: NRC1 NB-ARC domain, wild-type, expressed in Sf9 cells (domain or fragment, UniProt A1X877 150-494)
chain: B1 chain
On to B2, for which the binding entry in test [2] was “no binding (tested: 50 μM)”.

B3: NRC1 NB-ARC^D268N (domain or fragment, UniProt A1X877 150-494)
chain: B1 chain with D119N
For B3, the binding result in test [3] is recorded as “no binding (tested: 50 μM)”.
